## Percent effect of library compounds

Source: ChEMBL document CHEMBL3988442, “University of Dundee, Small-Polar-MMV Screening Library” (2021).

Each number is a percent effect as filed.
How 0% and 100% were set is not recorded. Most values in the screen are low, and negative values occur.
This is an unselected part of the compounds tested.
Two or more numbers in one place are separate tests of the same structure; such repeats can differ widely.

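Cell assay of Leishmania donovani living inside macrophages; the read-out is not stated. Tested at 30 µM. Higher reads as stronger inhibition (inferred: compounds with an IC50 in retests scored well above the rest). Size under these conditions: about 69,000 compounds, about 1,000 of them at 50% or above in at least one test.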

* Cc1cc(N2CCC(C(=O)O)(n3ccc(C(C)C)n3)CC2)nc(N)n1 : -2.046%
* Cc1cc(F)c(S(=O)(=O)Nc2ccn(CCCC#N)n2)cc1F : -8.66% & 31.68%
* CNC(=O)c1cc(C)nc(C2(C)CCCN2c2cc(C)ncn2)n1 (centres unmarked) : 35.24%
* CCCC(NC(=O)c1ccccc1Br)c1nnn[nH]1 (centres unmarked) : 3.755%
* O=C1CCOCCN1Cc1ccc(Cl)c(Cl)c1 : -42.23%
* Cc1ccc(C)c2c(O)cc(CNCC(N)=O)nc12 : -5.467%
* CCn1cnnc1CN(C)Cc1nc(-c2cc(OC)ccc2F)oc1C : 29.77%
* CCC(=O)NC1CCCN(C(=O)Nc2cc(-c3ccccc3)on2)C1 (centres unmarked) : 18.71%
* Cc1noc(C)c1CNC(=O)N1CCC(NS(C)(=O)=O)CC1 : 5.048%
* O=C(O)C(F)(F)F.[H][C@@]12CN(CC3CC3)C[C@]1([H])[C@@H](OC)CCN2C(=O)c1ccsc1 : -4.989%
* Cc1nc(CNC(=O)NCC(O)c2cccc(Cl)c2)cs1 (centres unmarked) : 3.587%
* CCOCCCNC(=O)CN(c1ccc(F)c(F)c1)S(C)(=O)=O : 6.13%
* N#Cc1c(Cl)nsc1N1CCN(CC2CC2)CC1 : -7.707%
* COCc1cc(CC2(NC3CCN(C)CC3)COC2)no1 : 18.24%
* Cc1nnc(N2CCCC3(CN(Cc4cccnc4)CCO3)C2)o1.O=C(O)C(F)(F)F.O=C(O)C(F)(F)F.O=C(O)C(F)(F)F (centres unmarked) : -0.12%
* [H][C@@]12CN(Cc3cccc(CN4CCOCC4)c3)C[C@]1(C(=O)O)CNC2=O : 11.43%
* CCC[C@@H]1CN(C(=O)c2cc3ccccc3cc2O)C[C@H]1N(C)C : 28.11%
* [H][C@]12CC[C@@H](N(C)c3ccc(C)nn3)[C@@]1([H])CN(C(=O)Cc1cccs1)C2 : 40.97%
* Cc1ccc(CN2CCC(CNC(=O)Cn3cncn3)CC2)cc1 : 12.63%
* Cc1ccc(-c2nc(CN3CCCC(Cn4cncn4)C3)no2)cc1 (centres unmarked) : -10.01%
* CC(C)N(CCS(C)(=O)=O)Cc1csc(Cc2ccc(Cl)cc2)n1 : -28.98%
* CN[C@@H]1CCC[C@@H](Oc2ccccc2Oc2ccc(C)cc2)[C@@H]1O : 98.74%
* CCN(C(=O)CSc1ccc(C(F)(F)F)cn1)C1CC1 : 31.84%
* CCNC(=O)CCCC(=O)N1CCc2cc(Cl)cc(Cl)c2C1 : 1.775%
* CC1=C(C#N)C(=O)NC(=O)/C1=C\c1c(C)nn(-c2ccc(Cl)cc2)c1O : 10.23%
* CC(CCn1cccn1)NCc1n[nH]c2c1CCCCC2 (centres unmarked) : 13.15%
* CCNc1ccnc(NC2CCN(C(=O)c3ccc(C)cc3)CC2)n1 : 31.64%
* COCCn1cc(CC(=O)Nc2nc[nH]n2)c2ccccc21 : 12.31%
* CS(=O)(=O)N1CCN(C(=O)c2cccc(Cl)c2)CC2(CNC(=O)C2)C1 (centres unmarked) : 25.1%
* CCOCCCn1c(NC(=O)c2ccc(C)nc2)nc2ccccc21 : 25.19%
* [H][C@@]12CCN(C(=O)COc3ccccc3OC)C[C@]1(COC)CCO2 : 0.959%

Repeated from the top, 3 entries:

Compound,effect
Cc1cc(N2CCC(C(=O)O)(n3ccc(C(C)C)n3)CC2)nc(N)n1,-2.046%
Cc1cc(F)c(S(=O)(=O)Nc2ccn(CCCC#N)n2)cc1F,-8.66% & 31.68%
CNC(=O)c1cc(C)nc(C2(C)CCCN2c2cc(C)ncn2)n1 (centres unmarked),35.24%